Source: patent US9670221B2, “Furopyridines as bromodomain inhibitors” (GlaxoSmithKline Intellectual Property (No.2) Limited, priority 2013, dated 2017)
Structures can show the parent of a compound that is named as a salt. Some entries share one result that the patent states for a list of compounds.

The compounds below were run on BRD4 BD1 over BRD4 BD2 (assay: Selectivity for BRD4 BD1 over BRD4 BD2 from the TR-FRET assays).
Format: binding, Human

Structure (SMILES) | selectivity for BRD4 BD1 over BRD4 BD2 (BRD4 BD1 pIC50 - BRD4 BD2 pIC50) [log unit]
Cn1cc(-c2cccc(NCc3ccccn3)c2)c2oc(CN3CCCNCC3)cc2c1=O [Example 51, 2-((1,4-diazepan-1-yl)methyl)-5-methyl-7-(3-((pyridin-2-ylmethyl)amino)phenyl)furo[3,2-c]pyridin-4(5H)-one hydrochloride] | > 2
CCOc1cnccc1-c1cn(C)c(=O)c2cc(CN3CCN(S(C)(=O)=O)C[C@H]3C)oc12 [Example 52, (R)-7-(3-ethoxypyridin-4-yl)-5-methyl-2-((2-methyl-4-(methylsulfonyl)piperazin-1-yl)methyl)furo[3,2-c]pyridin-4(5H)-one] | > 2
CC(=O)Nc1cccc(-c2cn(C)c(=O)c3cc(CN4CCN(S(C)(=O)=O)C[C@H]4C)oc23)n1 [Example 54, (R)-N-(6-(5-methyl-2-((2-methyl-4-(methylsulfonyl)piperazin-1-yl)methyl)-4-oxo-4,5-dihydrofuro[3,2-c]pyridin-7-yl)pyridin-2-yl)acetamide] | > 2
CN1CCCN(Cc2cc3c(=O)n(C)cc(-c4ccncc4OCC4CC4)c3o2)CC1.Cl [Example 56, 7-(3-(cyclopropylmethoxy)pyridin-4-yl)-5-methyl-2-((4-methyl-1,4-diazepan-1-yl)methyl)furo[3,2-c]pyridin-4(5H)-one hydrochloride] | > 2
CN1CCCN(Cc2cc3c(=O)n(C)cc(-c4cccc(NCc5ccccn5)c4)c3o2)CC1.Cl [Example 57, 5-methyl-2-((4-methyl-1,4-diazepan-1-yl)methyl)-7-(3-((pyridin-2-ylmethyl)amino)phenyl)furo[3,2-c]pyridin-4(5H)-one hydrochloride] | > 2
CC(C)Oc1cnccc1-c1cn(C)c(=O)c2cc(CN3CCN(S(C)(=O)=O)C[C@H]3C)oc12 [Example 58, (R)-7-(3-isopropoxypyridin-4-yl)-5-methyl-2-((2-methyl-4-(methylsulfonyl)piperazin-1-yl)methyl)furo[3,2-c]pyridin-4(5H)-one] | > 2
C[C@@H]1CN(S(C)(=O)=O)CCN1Cc1cc2c(=O)n(C)cc(-c3ccnc(N)c3)c2o1 [Example 59, (R)-7-(2-aminopyridin-4-yl)-5-methyl-2-((2-methyl-4-(methylsulfonyl)piperazin-1-yl)methyl)furo[3,2-c]pyridin-4(5H)-one] | > 2
C[C@@H]1CN(S(C)(=O)=O)CCN1Cc1cc2c(=O)n(C)cc(-c3ccncc3O)c2o1 [Example 60, (R)-7-(3-hydroxypyridin-4-yl)-5-methyl-2-((2-methyl-4-(methylsulfonyl)piperazin-1-yl)methyl)furo[3,2-c]pyridin-4(5H)-one] | > 2
C[C@@H]1CN(S(C)(=O)=O)CCN1Cc1cc2c(=O)n(C)cc(-c3ccncc3OCC3CC3(F)F)c2o1 (stereo partly drawn) [Example 61, 7-(3-((2,2-difluorocyclopropyl)methoxy)pyridin-4-yl)-5-methyl-2-(((R)-2-methyl-4-(methylsulfonyl)piperazin-1-yl)methyl)furo[3,2-c]pyridin-4(5H)-one] | > 2
Cl.[2H]C([2H])([2H])n1cc(-c2ccnc(NC(C)=O)c2)c2oc(CN3CCN(S(C)(=O)=O)C[C@H]3C)cc2c1=O [Example 62, (R)-N-(4-(5-(^2H3)methyl-2-((2-methyl-4-(methylsulfonyl)piperazin-1-yl)methyl)-4-oxo-4,5-dihydrofuro[3,2-c]pyridin-7-yl)pyridin-2-yl)acetamide] | > 2
C[C@@H]1CN(S(C)(=O)=O)CCN1Cc1cc2c(=O)n(C)cc(-c3ccncc3OCCN3CCCC3=O)c2o1 [Example 63, (R)-5-methyl-2-((2-methyl-4-(methylsulfonyl)piperazin-1-yl)methyl)-7-(3-(2-(2-oxopyrrolidin-1-yl)ethoxy)pyridin-4-yl)furo[3,2-c]pyridin-4(5H)-one] | > 2
C[C@@H]1CN(S(C)(=O)=O)CCN1Cc1cc2c(=O)n(C)cc(-c3cccc(NC(=O)CCCCN)c3)c2o1.Cl [Example 64, (R)-5-amino-N-(3-(5-methyl-2-((2-methyl-4-(methylsulfonyl)piperazin-1-yl)methyl)-4-oxo-4,5-dihydrofuro[3,2-c]pyridin-7-yl)phenyl)pentanamide hydrochloride] | > 2
CC(=O)Nc1cc(-c2cn(C)c(=O)c3cc(C(C)(C)N4CCN(S(C)(=O)=O)CC4)oc23)ccn1 [Example 65, N-(4-(5-methyl-2-(2-(4-(methylsulfonyl)piperazin-1-yl)propan-2-yl)-4-oxo-4,5-dihydrofuro[3,2-c]pyridin-7-yl)pyridin-2-yl)acetamide] | > 2
COCCOc1cnccc1-c1cn(C)c(=O)c2cc(CN3CCN(S(C)(=O)=O)C[C@H]3C)oc12 [Example 66, (R)-7-(3-(2-methoxyethoxy)pyridin-4-yl)-5-methyl-2-((2-methyl-4-(methylsulfonyl)piperazin-1-yl)methyl)furo[3,2-c]pyridin-4(5H)-one] | > 2
Cn1cc(-c2ccc(C(=O)O)cc2OCC2CC2)c2oc(CN3CCN(S(C)(=O)=O)CC3)cc2c1=O [Example 67, 3-(cyclopropylmethoxy)-4-(5-methyl-2-((4-(methylsulfonyl)piperazin-1-yl)methyl)-4-oxo-4,5-dihydrofuro[3,2-c]pyridin-7-yl)benzoic acid] | > 2
C[C@@H]1CN(S(C)(=O)=O)CCN1Cc1cc2c(=O)n(C)cc(-c3ccncc3OCC3CCOC3)c2o1 (stereo partly drawn) [Example 69, 5-methyl-2-(((R)-2-methyl-4-(methylsulfonyl)piperazin-1-yl)methyl)-7-(3-((tetrahydrofuran-3-yl)methoxy)pyridin-4-yl)furo[3,2-c]pyridin-4(5H)-one] | > 2
C[C@@H]1CN(S(C)(=O)=O)CCN1Cc1cc2c(=O)n(C)cc(-c3ccncc3OCC3CCCO3)c2o1 (stereo partly drawn) [Example 70, 5-methyl-2-(((R)-2-methyl-4-(methylsulfonyl)piperazin-1-yl)methyl)-7-(3-((tetrahydrofuran-2-yl)methoxy)pyridin-4-yl)furo[3,2-c]pyridin-4(5H)-one] | > 2
C[C@@H]1CN(S(C)(=O)=O)CCN1Cc1cc2c(=O)n(C)cc(-c3ccncc3OCCF)c2o1 [Example 72, (R)-7-(3-(2-fluoroethoxy)pyridin-4-yl)-5-methyl-2-((2-methyl-4-(methylsulfonyl)piperazin-1-yl)methyl)furo[3,2-c]pyridin-4(5H)-one] | > 2
C[C@@H]1CN(S(C)(=O)=O)CCN1Cc1cc2c(=O)n(C)cc(-c3ccncc3OC3CC3)c2o1 [Example 73, (R)-7-(3-cyclopropoxypyridin-4-yl)-5-methyl-2-((2-methyl-4-(methylsulfonyl)piperazin-1-yl)methyl)furo[3,2-c]pyridin-4(5H)-one] | > 2
